Assay results as given in PubChem BioAssay AID743255 (National Center for Advancing Translational Sciences (NCATS), 2014).
Screen size: about 390,000 compounds; about 910 (0.23%) were called active. Inconclusive means that the source gave no clear call. Such entries were picked first, then a sample of the others. Calls come from the whole dose curve; as a rule, active = well fitted inhibition curve with a large enough effect; inconclusive = small, poorly fitted or top-dose-only effect; inactive = no such curve, though single readings can be large or run the other way. Where the call is inconclusive, the potency comes from a doubtful curve fit.

The chains behind the UniProt entries cited, without tags or fusion partners. Where a name states a change or a piece, a line headed by the entry shows the natural chain unless it says otherwise.
UniProt O94782: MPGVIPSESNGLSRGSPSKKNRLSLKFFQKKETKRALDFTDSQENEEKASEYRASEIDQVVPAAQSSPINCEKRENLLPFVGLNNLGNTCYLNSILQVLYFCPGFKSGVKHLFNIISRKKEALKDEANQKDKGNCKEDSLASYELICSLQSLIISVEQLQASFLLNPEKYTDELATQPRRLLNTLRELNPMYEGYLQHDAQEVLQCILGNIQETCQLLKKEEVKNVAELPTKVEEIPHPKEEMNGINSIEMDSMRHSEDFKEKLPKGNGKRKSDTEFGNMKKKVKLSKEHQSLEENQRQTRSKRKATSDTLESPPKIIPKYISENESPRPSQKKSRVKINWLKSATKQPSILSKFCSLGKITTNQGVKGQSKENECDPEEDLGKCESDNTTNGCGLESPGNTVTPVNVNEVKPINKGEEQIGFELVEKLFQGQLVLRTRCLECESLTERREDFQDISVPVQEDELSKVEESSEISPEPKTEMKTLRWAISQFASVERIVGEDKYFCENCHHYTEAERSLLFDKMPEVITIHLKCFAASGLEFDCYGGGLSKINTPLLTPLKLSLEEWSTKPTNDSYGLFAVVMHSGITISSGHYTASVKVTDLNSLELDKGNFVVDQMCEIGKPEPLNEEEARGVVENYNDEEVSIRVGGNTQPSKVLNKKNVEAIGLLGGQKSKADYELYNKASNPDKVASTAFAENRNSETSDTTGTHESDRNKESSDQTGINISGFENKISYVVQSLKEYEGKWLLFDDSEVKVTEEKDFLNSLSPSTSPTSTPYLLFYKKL

biological target: Ubiquitin carboxyl-terminal hydrolase 1 (Homo sapiens) (UniProt O94782); assay: Inhibitors of USP1/UAF1: Primary Screen; settings: recombinant USP1/UAF1, Ub-Rhodamine cleavage fluorescence; activity change, negative = inhibition: at 57.1 µM (top of the series); note: nearly all actives have a fitted effect of over 60% in size
Procedure, shortened: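 In this screen, compounds sit with the deubiquitinase complex (1nM) for 15 min at room temperature before Ub-Rho is added at 150nM final. Fluorescence rise is then followed for 6 reads every 60 seconds.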
% is set by controls: 0 for no effect and ±100 for the full control effect; potency is the fitted concentration of half-maximal effect.

Which Potency does the source give for O=C(OCC(=O)c1c[nH]c2ccccc12)c1cc(Br)ccc1O here?
Its Potency is inconclusive: 35.5 µM [inhibitor, partial curve].

How did the Potency turn out when CCOc1ccc(/C=C/C2=Cc3c(sc(NC(=O)CSc4n[nH]c(N)n4)c3C#N)C(C)(C)C2)cc1 was run?
Its Potency is inconclusive: 25.1 µM [inhibitor, single point].

Which Potency does the source give for Cc1cc(N2CCN(C)CC2)nc2ccc(NC(=O)CCC(=O)NCCc3ccc(Cl)cc3)cc12 here?
Its Potency is inconclusive: 10 µM [inhibitor, partial curve, poor fit].

COc1ccc(-c2cc(C(F)(F)F)nc(SCC(=O)NCC(C)C)n2)cc1OC was tested. Which “activity change, negative = inhibition” value did it give?
The value was inactive: -22.2%.

How did the Potency turn out when Oc1cccc(C=Nc2cccc3ccccc23)c1O was run?
Its Potency is inconclusive: 31.6 µM [inhibitor, partial curve].

Which “activity change, negative = inhibition” value does the source give for NC(=O)CC(NSc1ccccc1[N+](=O)[O-])C(=O)O (configuration not stated) here?
The value was inactive: 11.9%.

How did the Potency turn out when Cc1cccc(-c2ccc3[nH]c4c(c3c2)CCN2C[C@@H]([C@H](C)O)[C@@H](N(C)C(=O)Nc3ccc(F)cc3)C[C@@H]42)c1 was run?
Its Potency is inconclusive: 0.199 µM [inhibitor, full curve, poor fit].

Which Potency does the source give for CCOC(=O)c1ccc(NS(=O)(=O)N2CCCCCC2)cc1 here?
Its Potency is inconclusive: 28.2 µM [inhibitor, partial curve].

How did the Potency turn out when CN1CN(C)c2ccc([N+](=O)[O-])c3cccc1c23 was run?
Its Potency is inconclusive: 3.16 µM [inhibitor, partial curve].

c1ccc2c(-c3nc4ccccc4[nH]3)cccc2c1 was tested. Which Potency did it give?
The Potency was inconclusive: 1.58 µM [inhibitor, full curve].

For CCOC(=O)N1CCN(C(=O)c2ccc(CNS(=O)(=O)c3ccc(C)cc3)cc2)CC1, which “activity change, negative = inhibition” value is on record?
Its value is inactive: -20.6%.

Which Potency does the source give for COc1cc(NC(=O)CSc2ccc(-c3ccccn3)nn2)cc(OC)c1 here?
Its Potency is inconclusive: 1.41 µM [inhibitor, partial curve, poor fit].

O=C(CSc1nc(-c2ccc(F)cc2)[nH]c1-c1ccc(F)cc1)Nc1ccc2c(c1)OCO2 was tested. Which “activity change, negative = inhibition” value did it give?
The value was inactive: -19.6%.

Which Potency does the source give for Cc1cc(-c2ccc(C(C)C)c(S(=O)(=O)N3CCN(c4ccccn4)CC3)c2)on1 here?
Its Potency is inconclusive: 50.1 µM [inhibitor, partial curve, poor fit].

Which Potency does the source give for Cc1ccccc1C(=O)Nc1ccc(C(=O)N/N=C/c2ccncc2)cc1 here?
Its Potency is inconclusive: 4.47 µM [inhibitor, partial curve].

With CCN1CCN(Cc2c(O)ccc3c2O/C(=C\c2ccc(C)cc2)C3=O)CC1 as the compound, how does the Potency read?
The Potency was inconclusive: 28.2 µM [inhibitor, partial curve].

How did the Potency turn out when COc1cc2c(cc1OC)C(=O)N1[C@H]3c4cc(C)ccc4OC[C@@H]3[C@H](c3ccccc3)[C@]1(C)C(=O)N2 was run?
Its Potency is inconclusive: 5.62 µM [inhibitor, full curve, poor fit].
